Test results published in US20260240865A1, “HARNESSING IKZF:BETA-CATENIN COMPLEXES IN THE TREATMENT OF LYMPHOCYTE ASSOCIATED DISEASES OR CONDITIONS” (Yale University, priority 2022, published 2026).
These are yes or no findings as the source states them, for the method shown. Binding seen in cells or lysates may run through a third protein. Some binding calls cover weakened binding; strength is not graded here.

Sequences of proteins named here, by UniProt entry; tags and fusion partners are left off. Residues count along the entry.
UniProt Q02248, residues 2-781: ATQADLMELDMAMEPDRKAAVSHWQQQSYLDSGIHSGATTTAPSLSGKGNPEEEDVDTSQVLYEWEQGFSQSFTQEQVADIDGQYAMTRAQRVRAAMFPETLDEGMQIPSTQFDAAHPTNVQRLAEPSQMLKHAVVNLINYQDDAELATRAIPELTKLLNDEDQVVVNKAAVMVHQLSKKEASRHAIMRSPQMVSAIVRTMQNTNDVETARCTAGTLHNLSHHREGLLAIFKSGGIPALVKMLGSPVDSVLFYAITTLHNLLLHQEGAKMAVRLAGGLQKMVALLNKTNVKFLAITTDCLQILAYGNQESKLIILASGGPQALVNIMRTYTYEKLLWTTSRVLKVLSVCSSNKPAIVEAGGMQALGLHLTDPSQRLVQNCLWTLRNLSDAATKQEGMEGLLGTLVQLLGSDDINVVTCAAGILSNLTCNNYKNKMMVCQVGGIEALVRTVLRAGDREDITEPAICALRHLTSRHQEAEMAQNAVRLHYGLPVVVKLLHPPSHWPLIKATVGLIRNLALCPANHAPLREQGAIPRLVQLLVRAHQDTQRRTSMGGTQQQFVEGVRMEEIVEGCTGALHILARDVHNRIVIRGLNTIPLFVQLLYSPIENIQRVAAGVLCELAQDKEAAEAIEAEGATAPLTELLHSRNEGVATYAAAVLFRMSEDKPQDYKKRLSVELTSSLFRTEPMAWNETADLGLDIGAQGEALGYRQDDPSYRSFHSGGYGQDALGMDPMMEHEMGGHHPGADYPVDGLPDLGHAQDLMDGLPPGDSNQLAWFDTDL
UniProt Q00417: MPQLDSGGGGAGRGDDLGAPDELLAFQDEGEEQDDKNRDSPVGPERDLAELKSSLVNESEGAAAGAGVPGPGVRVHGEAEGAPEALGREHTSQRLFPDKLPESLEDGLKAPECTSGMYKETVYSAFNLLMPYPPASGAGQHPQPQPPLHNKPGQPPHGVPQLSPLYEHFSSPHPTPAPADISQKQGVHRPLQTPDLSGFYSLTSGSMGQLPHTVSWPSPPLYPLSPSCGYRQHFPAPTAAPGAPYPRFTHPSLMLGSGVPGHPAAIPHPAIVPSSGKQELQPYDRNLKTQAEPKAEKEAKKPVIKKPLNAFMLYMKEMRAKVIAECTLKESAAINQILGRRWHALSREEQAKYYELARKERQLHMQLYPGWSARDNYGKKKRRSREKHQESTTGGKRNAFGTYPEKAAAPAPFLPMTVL
UniProt O08900: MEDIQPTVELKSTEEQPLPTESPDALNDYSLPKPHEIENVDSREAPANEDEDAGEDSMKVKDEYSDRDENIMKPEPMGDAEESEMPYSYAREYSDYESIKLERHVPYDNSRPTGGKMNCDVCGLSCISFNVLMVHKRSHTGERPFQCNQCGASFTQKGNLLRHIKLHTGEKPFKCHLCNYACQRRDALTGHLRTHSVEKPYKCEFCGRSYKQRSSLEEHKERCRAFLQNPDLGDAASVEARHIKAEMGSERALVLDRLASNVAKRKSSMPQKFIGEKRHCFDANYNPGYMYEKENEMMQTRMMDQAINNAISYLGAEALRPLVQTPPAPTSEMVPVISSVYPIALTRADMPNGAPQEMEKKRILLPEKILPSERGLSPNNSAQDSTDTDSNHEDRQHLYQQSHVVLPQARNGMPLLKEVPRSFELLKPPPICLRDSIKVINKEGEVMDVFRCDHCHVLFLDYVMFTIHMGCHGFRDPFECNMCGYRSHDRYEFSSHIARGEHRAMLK
UniProt Q03267: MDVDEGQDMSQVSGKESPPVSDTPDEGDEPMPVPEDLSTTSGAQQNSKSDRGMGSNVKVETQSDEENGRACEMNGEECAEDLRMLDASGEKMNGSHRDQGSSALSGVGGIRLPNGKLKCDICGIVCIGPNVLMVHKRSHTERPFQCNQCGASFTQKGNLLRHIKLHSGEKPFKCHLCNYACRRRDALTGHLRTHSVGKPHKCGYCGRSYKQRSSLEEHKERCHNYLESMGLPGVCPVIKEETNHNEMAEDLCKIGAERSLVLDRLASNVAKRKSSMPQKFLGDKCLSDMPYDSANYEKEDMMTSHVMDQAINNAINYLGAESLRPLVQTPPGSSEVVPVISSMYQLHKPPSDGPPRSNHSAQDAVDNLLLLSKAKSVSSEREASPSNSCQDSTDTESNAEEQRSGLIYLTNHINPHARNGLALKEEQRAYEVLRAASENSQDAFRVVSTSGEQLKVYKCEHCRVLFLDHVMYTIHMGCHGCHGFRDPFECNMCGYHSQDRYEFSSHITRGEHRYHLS
UniProt Q924A0: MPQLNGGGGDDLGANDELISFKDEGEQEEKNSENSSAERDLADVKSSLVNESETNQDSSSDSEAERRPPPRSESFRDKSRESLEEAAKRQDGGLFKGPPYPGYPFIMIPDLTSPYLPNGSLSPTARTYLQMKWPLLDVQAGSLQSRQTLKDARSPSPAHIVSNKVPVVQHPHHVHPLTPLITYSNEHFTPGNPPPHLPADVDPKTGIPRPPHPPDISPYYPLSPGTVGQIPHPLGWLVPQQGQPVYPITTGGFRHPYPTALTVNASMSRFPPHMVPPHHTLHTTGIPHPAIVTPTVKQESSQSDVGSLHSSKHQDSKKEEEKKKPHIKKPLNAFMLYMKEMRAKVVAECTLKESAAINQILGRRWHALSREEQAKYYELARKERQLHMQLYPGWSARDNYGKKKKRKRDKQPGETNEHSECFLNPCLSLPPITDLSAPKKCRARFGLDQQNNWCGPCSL

What was measured:
[1] = biological target: β-catenin (Ctnnb1), mouse (mouse) (UniProt Q02248); test: co-IP with anti-β-catenin antibody and Western blot, β-catenin accumulation, Ikzf1/Ikzf3-deleted B-ALL cells
[2] = biological target: β-catenin (Ctnnb1), mouse (mouse) (UniProt Q02248); test: co-IP with anti-β-catenin antibody and Western blot, Ikzf1/Ikzf3-deleted B-ALL cells
[3] = biological target: β-catenin (Ctnnb1), mouse (mouse) (UniProt Q02248); test: co-IP for β-catenin and Western blot in Ikzf1-deleted (clone 1C7) Ctnnb1^ex3fl/+ B-ALL cells
[4] = biological target: β-catenin (Ctnnb1), mouse (mouse) (UniProt Q02248); test: co-IP for β-catenin and Western blot in B-ALL cells with biallelic deletion of Ikzf1 (FIG. 12A)
[5] = biological target: β-catenin (Ctnnb1), mouse (mouse) (UniProt Q02248); test: co-IP for β-catenin and Western blot in Ikzf3-deleted (clone 2F9) Ctnnb1^ex3fl/+ B-ALL cells
[6] = biological target: β-catenin (Ctnnb1), mouse (mouse) (UniProt Q02248); test: co-IP for β-catenin and Western blot in B-ALL cells with biallelic deletion of Ikzf3 (FIG. 12A)
[7] = biological target: β-catenin (Ctnnb1), mouse (mouse) (UniProt Q02248); test: co-IP with anti-β-catenin antibody and Western blot, β-catenin accumulation, B-ALL cells with and without Ikzf1/Ikzf3 deletion

| binding [2] | binding [7] | Molecule | other results |
| --- | --- | --- | --- |
| binds | – | Tcf7, mouse (from UniProt Q00417 1-419) | binding [1]: binds |
| – | – | Aiolos (Ikzf3), mouse (from UniProt O08900 1-507) | binding [3]: binds; binding [4]: binds |
| – | – | Ikaros (Ikzf1), mouse (from UniProt Q03267 1-517) | binding [5]: binds; binding [6]: binds |
| binds | binds | Tcf7l2, mouse (from UniProt Q924A0 1-459) | – |
| binds | binds | Tcf7l1, mouse (protein, UniProt Q9Z1J1 1-584, looked up) MPQLGGGRGGAGGGGGGSGAGATSGGDDLGANDELIPFQDEGGEEQEPSSDTASAQRDLDEVKSSLVNESENQSSSSDSEAERRPQPARDAFQKPRDYFAEVRRPQDGAFFKGGAYPGYPFLMIPDLSSPYLSNGPLSPGGARTYLQMKWPLLDVPSSATVKDTRSPSPAHLSNKVPVVQHPHHMHPLTPLITYSNDHFSPASPPTHLSPEIDPKTGIPRPPHPSELSPYYPLSPGAVGQIPHPLGWLVPQQGQPMYSLPPGGFRHPYPALAMNASMSSLVSSRFPHMVAPAHPGLPTSGIPHPAIVSPIVKQEPAAPSLSPAVSAKSPVTVKKEEEKKPHVKKPLNAFMLYMKEMRAKVVAECTLKESAAINQILGRKWHNLSREEQAKYYELARKERQLHAQLYPTWSARDNYGKKKKRKREKQLSQTQSQQQIQEAEGALASKSKKPCIQYLPPEKPCDSPASSHGSALDSPATPSAALASPAAPAATHSEQAQPLSLTTKPEARAQLALHSAAFLSAKAAASNSSQMGSQPPLLSRPLPLGSMPAALLTSPPTFPATLHAHQALPVLQAQPLSLVTKSAH | – |
